Source: paper PMC4106853
Residue numbers refer to the chain shown, from its start. These are yes or no findings as the source states them, for the method shown. For some assays here: Binding seen in cells or lysates may run through a third protein. Some binding calls cover weakened binding; strength is not graded here. Tags and fused reporters may be left off the sequences shown. Values belong to the binder of their own block, whether it stands above or below them.

What was measured:
GST-Slp1 [1] = target: T1, GST-Slp1 (UniProt Q99N80); assay: pull-down; his6-Rab27a loaded with GTPγS, incubated with GST fusion proteins and glutathione-Sepharose 20 min at room temperature in Buffer A with CHAPS and 0.5 mM GTPγS; immunoblot for Rab27a and GST; both purified
T1 sequence: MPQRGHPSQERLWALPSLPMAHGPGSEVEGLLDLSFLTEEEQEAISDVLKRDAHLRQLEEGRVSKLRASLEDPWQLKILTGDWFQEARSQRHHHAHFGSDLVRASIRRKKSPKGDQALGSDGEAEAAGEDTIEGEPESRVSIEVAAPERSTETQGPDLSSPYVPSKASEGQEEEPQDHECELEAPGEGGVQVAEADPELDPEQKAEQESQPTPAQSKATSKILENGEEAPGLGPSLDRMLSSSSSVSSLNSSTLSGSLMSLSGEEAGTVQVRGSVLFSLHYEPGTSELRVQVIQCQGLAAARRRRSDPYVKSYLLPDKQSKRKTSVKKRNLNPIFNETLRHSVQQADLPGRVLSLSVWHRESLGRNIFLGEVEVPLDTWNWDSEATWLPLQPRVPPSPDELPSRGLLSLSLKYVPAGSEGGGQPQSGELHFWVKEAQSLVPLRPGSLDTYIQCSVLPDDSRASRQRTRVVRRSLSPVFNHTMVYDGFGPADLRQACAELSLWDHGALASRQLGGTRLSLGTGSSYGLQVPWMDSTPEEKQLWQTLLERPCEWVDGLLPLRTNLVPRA

GST-Slp1 [2] = target: T1, GST-Slp1; assay: pull-down; effector pull-down: 25 µg PNS of melan-INK4a cells (treated with NT, ATP1a1 and/or R3G siRNA) with 20 µM GST or GST-Slp1 and glutathione-Sepharose, 45 min room temperature, Buffer A; immunoblot for Rab27a and GST; only the target purified

binding (GST-Slp1 [1]): binds
B1: his6-Rab27a^WT (protein, UniProt P23640 1-221)
chain: MSDGDYDYLIKFLALGDSGVGKTSVLYQYTDGKFNSKFITTVGIDFREKRVVYRANGPDGTVGRGQRIHLQLWDTAGQERFRSLTTAFFRDAMGFLLLFDLTNEQSFLNVRNWISQLQMHAYCENPDIVLCGNKSDLEDQRAVKEEEARELAEKYGIPYFETSAANGTNISQAIEMLLDLIMKRMERCVDKSWIPEGVVRSNGHTSTDQLSEEKEKGLCGC

binding (GST-Slp1 [2]): binds
B2: native Rab27a from melanocyte lysates (protein, UniProt Q9ERI2 1-221)
chain: B1 chain with T61A, Q172H, T207A
